# PubChem BioAssay AID1159578 | Peter MacCallum Cancer Centre – 2015
# Aim: 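Knock-downs that alter how fast lymphatic endothelial cells migrate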 (primary screen)
# Cells: human lymphatic endothelial cells
# Reagents: siRNA pool against human genes, 40 nM
# Duration: 48 h after transfection
# Measured: 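Cells stained with dye and imaged after a scratch; covered wound area and nuclei counted, duplicates averaged, migration set against mock wells and turned into a robust z-score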
# Direction: migration robust z-score: higher = faster migration into the scratch; migration relative to mock: higher = more scratch area covered than mock; nuclei per well: higher = more cells in the well
# Active means: 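Migration changed when robust z exceeds 2 or falls below -2 and mean nuclei number is at least 3300; otherwise not called changed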
# Meaning of the calls: active = migration changed; inactive = no migration change, or too few cells
# In all, the deposit lists about 18,000 reagents; this is an unselected part. About 1,030 of all reagents (5.7%) were called active. 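Inactive calls also include pools with fewer than 3300 nuclei, whose migration was not assessed.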 Raw values vary from plate to plate and are shown uncorrected. A number with no mark means an inactive call. Reagents against one gene are numbered here.
The first 5 records as a preview:
gene,reagent,migration robust z-score,migration class with cell-count check,migration relative to mock,"nuclei per well, duplicate mean"
NDUFS2 (GeneID 4720),1,-1.02,migration z between -2 and 2; enough cells,0.61,6912
OR2W5 (GeneID 441932),1,-0.48,migration z between -2 and 2; enough cells,0.76,5022
CCDC74A (GeneID 90557),1,-0.29,migration z between -2 and 2; enough cells,0.81,5536
LRRTM3 (GeneID 347731),1,0.45,migration z between -2 and 2; enough cells,1.01,6425
SUB1 (GeneID 10923),1,0.24,migration z between -2 and 2; enough cells,0.85,5911

The list itself, repeating the preview:
gene,reagent,migration robust z-score,migration class with cell-count check,migration relative to mock,"nuclei per well, duplicate mean"
NDUFS2 (GeneID 4720),1,-1.02,migration z between -2 and 2; enough cells,0.61,6912
OR2W5 (GeneID 441932),1,-0.48,migration z between -2 and 2; enough cells,0.76,5022
CCDC74A (GeneID 90557),1,-0.29,migration z between -2 and 2; enough cells,0.81,5536
LRRTM3 (GeneID 347731),1,0.45,migration z between -2 and 2; enough cells,1.01,6425
SUB1 (GeneID 10923),1,0.24,migration z between -2 and 2; enough cells,0.85,5911
FABP2 (GeneID 2169),1,0.65,migration z between -2 and 2; enough cells,0.93,5362
FAM171B (GeneID 165215),1,1.23,migration z between -2 and 2; enough cells,1.21,6176
SHISA5 (GeneID 51246),1,-0.72,migration z between -2 and 2; enough cells,0.7,5077
TMEM131L (GeneID 23240),1,2.1 (active),migration z above 2; enough cells,1.43,6347
MYCBP2 (GeneID 23077),1,0.86,migration z between -2 and 2; enough cells,0.97,4752
IL33R (GeneID 9173),1,1.12,migration z between -2 and 2; enough cells,1.02,6364
BHMT2 (GeneID 23743),1,0.62,migration z between -2 and 2; enough cells,0.92,5715
GPR155 (GeneID 151556),1,-0.1,migration z between -2 and 2; enough cells,0.78,5404
CDC42EP3 (GeneID 10602),1,-1.67,migration z between -2 and 2; enough cells,0.45,5594
TPRA1 (GeneID 131601),1,0.78,migration z between -2 and 2; enough cells,0.96,6199
ACAP3 (GeneID 116983),1,-1.39,migration z between -2 and 2; enough cells,0.52,4952
UBE2J1 (GeneID 51465),1,0.73,migration z between -2 and 2; enough cells,0.94,4823
NKTR (GeneID 4820),1,0.11,migration z between -2 and 2; enough cells,0.92,7306
BBS2 (GeneID 583),1,0.9,migration z between -2 and 2; enough cells,1.12,6088
LY6E (GeneID 4061),1,0.26,migration z between -2 and 2; enough cells,0.95,5881
OLFML1 (GeneID 283298),1,0.06,migration z between -2 and 2; enough cells,0.9,6210
COL17A1 (GeneID 1308),1,0.12,migration z between -2 and 2; enough cells,0.92,5959
C11orf68 (GeneID 83638),1,0.51,migration z between -2 and 2; enough cells,1.02,6014
BRPF1 (GeneID 7862),1,0.9,migration z between -2 and 2; enough cells,0.98,6830
DNAJB12 (GeneID 54788),1,0.57,migration z between -2 and 2; enough cells,1.03,5400
SYN1 (GeneID 6853),1,0.42,migration z between -2 and 2; enough cells,0.88,5904
CTSD (GeneID 1509),1,0,migration z between -2 and 2; enough cells,0.8,5202
PRR27 (GeneID 401137),1,0.58,migration z between -2 and 2; enough cells,1.04,5724
EN2 (GeneID 2020),1,-2.21 (active),migration z below -2; enough cells,0.38,5618
SLC17A2 (GeneID 10246),1,1.36,migration z between -2 and 2; enough cells,1.23,6440
DEFA6 (GeneID 1671),1,-0.76,migration z between -2 and 2; enough cells,0.68,5390
CFLAR (GeneID 8837),1,-0.05,migration z between -2 and 2; enough cells,0.8,5539
RXRA (GeneID 6256),1,-0.28,migration z between -2 and 2; enough cells,0.75,3600
TRAPPC5 (GeneID 126003),1,0.52,migration z between -2 and 2; enough cells,1.02,6931
C20orf204 (GeneID 284739),1,-1.52,migration z between -2 and 2; enough cells,0.49,6721
ARL4D (GeneID 379),1,1.12,migration z between -2 and 2; enough cells,1.02,4958
NAT2 (GeneID 10),1,1.25,migration z between -2 and 2; enough cells,1.04,3902
LCN9 (GeneID 392399),1,-0.78,migration z between -2 and 2; enough cells,0.68,5806
NEUROG3 (GeneID 50674),1,0.82,migration z between -2 and 2; enough cells,1.1,5656
RHOG (GeneID 391),1,-2.02 (active),migration z below -2; enough cells,0.42,5818
TBL2 (GeneID 26608),1,-0.06,migration z between -2 and 2; enough cells,0.86,6952
LDHAL6A (GeneID 160287),1,-0.16,migration z between -2 and 2; enough cells,0.78,7632
SERF1A (GeneID 8293),1,-1.38,migration z between -2 and 2; enough cells,0.53,5820
PAK3 (GeneID 5063),1,-0.42,migration z between -2 and 2; enough cells,0.72,5358
ASTN1 (GeneID 460),1,-0.54,migration z between -2 and 2; enough cells,0.74,6656
MAGEA2B (GeneID 266740),1,1,migration z between -2 and 2; enough cells,1.14,6336
H3C7 (GeneID 8968),1,-0.26,migration z between -2 and 2; enough cells,0.82,4388
C2CD5 (GeneID 9847),1,0.14,migration z between -2 and 2; enough cells,0.92,6333
FES (GeneID 2242),1,-0.76,migration z between -2 and 2; enough cells,0.66,6458
SLC27A1 (GeneID 376497),1,-0.42,migration z between -2 and 2; enough cells,0.72,5688
HMCES (GeneID 56941),1,0.66,migration z between -2 and 2; enough cells,1.06,4884
VSIG1 (GeneID 340547),1,1.96,migration z between -2 and 2; enough cells,1.4,5538
HPS4 (GeneID 89781),1,0.15,migration z between -2 and 2; enough cells,0.92,5640
ELMOD1 (GeneID 55531),1,-0.46,migration z between -2 and 2; enough cells,0.76,5436
ELMOD1 (GeneID 55531),2,-0.11,migration z between -2 and 2; enough cells,0.86,5459
PFKM (GeneID 5213),1,-1.06,migration z between -2 and 2; enough cells,0.6,5566
SIM2 (GeneID 6493),1,-1.24,migration z between -2 and 2; enough cells,0.56,6085
TCEAL3 (GeneID 85012),1,1.34,migration z between -2 and 2; enough cells,1.23,6773
REV3L (GeneID 5980),1,0.54,migration z between -2 and 2; enough cells,0.91,5258
HBP1 (GeneID 26959),1,-0.82,migration z between -2 and 2; enough cells,0.67,5711
PTGER1 (GeneID 5731),1,0.05,migration z between -2 and 2; enough cells,0.82,6128
GATA1 (GeneID 2623),1,-0.48,migration z between -2 and 2; enough cells,0.76,4682
SCARF1 (GeneID 8578),1,1.68,migration z between -2 and 2; enough cells,1.32,5296
SHCBP1L (GeneID 81626),1,-0.44,migration z between -2 and 2; enough cells,0.76,5378
ENO3 (GeneID 2027),1,0.13,migration z between -2 and 2; enough cells,0.83,6344
CAND2 (GeneID 23066),1,-0.05,migration z between -2 and 2; enough cells,0.79,5693
GALNT8 (GeneID 26290),1,0.18,migration z between -2 and 2; enough cells,0.84,5204
ATP5F1B (GeneID 506),1,-1.09,migration z between -2 and 2; enough cells,0.6,3334
TAC4 (GeneID 255061),1,1.04,migration z between -2 and 2; enough cells,1.15,6522
KLF2 (GeneID 10365),1,0.29,migration z between -2 and 2; enough cells,0.86,5692
RNF168 (GeneID 165918),1,-0.72,migration z between -2 and 2; enough cells,0.66,4488
SIRT1 (GeneID 23411),1,-1.06,migration z between -2 and 2; enough cells,0.6,3769
RASSF8 (GeneID 11228),1,-0.38,migration z between -2 and 2; enough cells,0.79,5604
